Assay results as given in paper doi:10.1101/2021.12.22.473497.
Results are given in words; binding and its absence hold for the method and conditions named. Sequences can lack the tags named with a protein.

Columns and labels:
[1] = target: T1, BD-RBR (RETINOBLASTOMA-RELATED1 protein fused to the GAL4 DNA binding domain) (Arabidopsis thaliana) (UniProt Q9LKZ3); test: two-hybrid
T1 sequence: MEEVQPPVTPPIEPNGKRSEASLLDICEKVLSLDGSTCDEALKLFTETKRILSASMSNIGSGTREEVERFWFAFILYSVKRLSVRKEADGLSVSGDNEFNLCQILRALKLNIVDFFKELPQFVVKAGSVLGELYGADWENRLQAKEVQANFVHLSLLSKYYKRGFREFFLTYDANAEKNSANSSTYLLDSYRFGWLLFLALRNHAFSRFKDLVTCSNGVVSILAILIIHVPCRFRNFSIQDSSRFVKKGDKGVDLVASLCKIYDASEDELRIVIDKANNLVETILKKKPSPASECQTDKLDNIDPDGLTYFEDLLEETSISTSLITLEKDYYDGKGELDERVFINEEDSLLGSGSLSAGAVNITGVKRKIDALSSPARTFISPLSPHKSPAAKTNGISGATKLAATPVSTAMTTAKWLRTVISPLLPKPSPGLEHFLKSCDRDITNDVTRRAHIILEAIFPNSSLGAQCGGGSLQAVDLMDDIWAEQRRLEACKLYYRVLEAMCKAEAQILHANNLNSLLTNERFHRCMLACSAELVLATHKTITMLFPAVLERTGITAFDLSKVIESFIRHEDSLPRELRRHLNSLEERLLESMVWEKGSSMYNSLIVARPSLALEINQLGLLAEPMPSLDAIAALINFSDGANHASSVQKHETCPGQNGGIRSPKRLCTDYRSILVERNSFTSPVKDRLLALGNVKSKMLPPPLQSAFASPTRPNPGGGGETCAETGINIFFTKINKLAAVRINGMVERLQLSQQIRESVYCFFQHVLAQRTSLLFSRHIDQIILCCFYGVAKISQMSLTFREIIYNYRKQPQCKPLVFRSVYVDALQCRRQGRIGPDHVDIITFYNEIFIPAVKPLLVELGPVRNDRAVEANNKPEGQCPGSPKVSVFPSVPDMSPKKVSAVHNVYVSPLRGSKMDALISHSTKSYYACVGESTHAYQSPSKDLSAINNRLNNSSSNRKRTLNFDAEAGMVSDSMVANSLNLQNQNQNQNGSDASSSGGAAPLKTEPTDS

[2] = target: T2, BD-RBR^NF (RBR with N849F fused to the GAL4 DNA binding domain) (Arabidopsis thaliana) (UniProt Q9LKZ3); test: two-hybrid
T2 sequence: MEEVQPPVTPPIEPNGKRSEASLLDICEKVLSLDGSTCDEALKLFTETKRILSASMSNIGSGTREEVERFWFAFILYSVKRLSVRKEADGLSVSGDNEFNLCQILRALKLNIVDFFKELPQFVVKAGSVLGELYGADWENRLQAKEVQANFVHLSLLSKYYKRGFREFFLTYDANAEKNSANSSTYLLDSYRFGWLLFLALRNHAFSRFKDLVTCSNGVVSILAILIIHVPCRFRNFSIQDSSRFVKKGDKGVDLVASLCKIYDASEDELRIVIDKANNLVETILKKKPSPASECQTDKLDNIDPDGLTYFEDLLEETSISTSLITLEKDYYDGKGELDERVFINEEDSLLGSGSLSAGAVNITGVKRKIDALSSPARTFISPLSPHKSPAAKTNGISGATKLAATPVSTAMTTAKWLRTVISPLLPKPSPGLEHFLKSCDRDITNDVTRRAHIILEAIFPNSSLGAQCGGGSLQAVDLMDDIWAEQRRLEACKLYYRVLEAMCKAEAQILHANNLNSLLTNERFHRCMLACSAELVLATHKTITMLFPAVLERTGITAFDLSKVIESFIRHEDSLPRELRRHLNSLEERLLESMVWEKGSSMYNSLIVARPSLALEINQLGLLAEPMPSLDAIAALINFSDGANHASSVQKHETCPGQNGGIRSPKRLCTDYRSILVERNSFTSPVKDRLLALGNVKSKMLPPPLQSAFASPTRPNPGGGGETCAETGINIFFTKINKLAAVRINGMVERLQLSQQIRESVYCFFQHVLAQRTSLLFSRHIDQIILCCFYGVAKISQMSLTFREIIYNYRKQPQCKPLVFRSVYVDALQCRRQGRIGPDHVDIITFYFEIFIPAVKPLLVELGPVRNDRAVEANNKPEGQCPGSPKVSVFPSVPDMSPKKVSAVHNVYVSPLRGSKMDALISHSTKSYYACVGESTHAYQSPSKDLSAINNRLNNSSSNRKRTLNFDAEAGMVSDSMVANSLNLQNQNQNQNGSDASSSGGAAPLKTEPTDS

B1: AD-SOG1 (SUPPRESSOR OF GAMMA RESPONSE1 fused to the GAL4 activation domain) (protein, UniProt Q6NQK2 1-449)
chain: MAGRSWLIDSNRIATKIMSASASSDPRQVVWKSNPSRHCPKCQHVIDNSDVVDDWPGLPRGVKFDPSDPEIIWHLLAKSGLSGLSSHPFIDEFIPTVNQDDGICYTHPKNLPGVKSDGTVSHFFHKAIKAYSTGTRKRRKIHDDDFGDVRWHKTGRTKPVVLDGVQRGCKKIMVLYGGKAVKTNWVMHQYHLGIEEDEKEGDYVVSKIFYQQPQQLVVKRGDKAEQEVSEDIFAAVTPTADPVTPKLATPEPRNAVRICSDSHIASDYVTPSDYVSAHEVSLAETSEVMCMEDEVQSIQPNHERPSSGPELEHGLENGAKEMLDDKEEQEKDRDNENQGEEDPTWFDSGSQFILNSQQLVEALSLCDDLLGSQDREENTNSGSLKDKQPCIADYAHLGPEDFKRDLEECQKIVLDPSNIELDTPPEFRLSQLEFGSQDSFLAWGTGKTD
For B1, the binding [1] was “no binding” and the binding [2] was “no binding”.

B2: RAD54, yeast two-hybrid fusion (protein, UniProt Q0PCS3 1-910)
chain: MEEEDEEILSSSDCDDSSDSYKDDSQDSEGENDNPECEDLAVVSLSSDADRKSKNVKDLLRGNLVVQRQPLLPRVLSVSDGAAVCRKPFKPPCSHGYDSTGQLSRRLSARKRFVPWGSSTPVVVALPTKLEASTNIERDEEEEVVCLPPDIEPLVLWQSEEDGMSNVTTIMVHSVLVKFLRPHQREGVQFMFDCVSGLHGSANINGCILADDMGLGKTLQSITLLYTLLCQGFDGTPMVKKAIIVTPTSLVSNWEAEIKKWVGDRIQLIALCESTRDDVLSGIDSFTRPRSALQVLIISYETFRMHSSKFCQSESCDLLICDEAHRLKNDQTLTNRALASLTCKRRVLLSGTPMQNDLEEFFAMVNFTNPGSLGDAAHFRHYYEAPIICGREPTATEEEKNLAADRSAELSSKVNQFILRRTNALLSNHLPPKIIEVVCCKMTTLQSTLYNHFISSKNLKRALADNAKQTKVLAYITALKKLCNHPKLIYDTIKSGNPGTVGFENCLEFFPAEMFSGRSGAWTGGDGAWVELSGKMHVLSRLLANLRRKTDDRIVLVSNYTQTLDLFAQLCRERRYPFLRLDGSTTISKRQKLVNRLNDPTKDEFAFLLSSKAGGCGLNLIGANRLVLFDPDWNPANDKQAAARVWRDGQKKRVYVYRFLSTGTIEEKVYQRQMSKEGLQKVIQHEQTDNSTRQGNLLSTEDLRDLFSFHGDVRSEIHEKMSCSRCQNDASGTENIEEGNENNVDDNACQIDQEDIGGFAKDAGCFNLLKNSERQVGTPLEEDLGSWGHHFTSKSVPDAILQASAGDEVTFVFTNQVDGKLVPIESNVSPKTVESEEHNRNQPVNKRAFNKPQQRPREPLQPLSLNETTKRVKLSTYKRLHGNSNIDDAQIKMSLQRPNLVSVNHDDDFV
In the case of B2, the binding [1] is reported as “no binding”.
